PubChem BioAssay AID504805, Drosophila RNAi Screening Center | 2011
Only reagents picked out of a larger screen are listed. 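Phenotypes are words from visual inspection of images, not measured scores.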 The numbers tell different reagents against one gene apart. A plus sign joins genes that one reagent is predicted to hit.

Screen: 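Genome-wide fly cell screen for factors exporting mRNA from the nucleus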 (primary screen)
Cells: Drosophila S2R+ cells
Reagent: long dsRNA against Drosophila genes, 0.25 µg dsRNA per well
Duration: 4 days
Detection: 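Microscope images of cells stained for poly(A) RNA with a fluorescent oligo-dT probe and for DNA, assessed visually, with a phenotype description given for each replicate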

predicted target | reagent no. | phenotype, replicate 1 | phenotype, replicate 2
Sgs4 | 1 | poly(A) RNA held back in the nucleus | –
CG34159 | 1 | poly(A) RNA held back in the nucleus | –
uif | 1 | poly(A) RNA held back in the nucleus | –
CG9517 (retired record) | 1 | poly(A) RNA held back in the nucleus | –
Hr3 | 1 | poly(A) RNA held back in the nucleus | poly(A) RNA held back in the nucleus
Nup154 | 1 | poly(A) RNA held back in the nucleus | –
RpS24 | 1 | poly(A) RNA held back in the nucleus | –
Oli | 1 | poly(A) RNA held back in the nucleus | –
CG1523 | 1 | poly(A) RNA held back in the nucleus | –
lig | 1 | poly(A) RNA held back in the nucleus | –
stretch (retired record) | 1 | poly(A) RNA held back in the nucleus | –
CG7990 | 1 | poly(A) RNA held back in the nucleus | –
Polr2A | 1 | poly(A) RNA held back in the nucleus | –
Neos | 1 | poly(A) RNA held back in the nucleus | –
eyg | 1 | rounded cells with compacted RNA | –
e(y)2 | 1 | poly(A) RNA held back in the nucleus | –
CG44085 | 1 | poly(A) RNA held back in the nucleus | poly(A) RNA held back in the nucleus
Socs36E | 1 | poly(A) RNA held back in the nucleus | poly(A) RNA held back in the nucleus
Hel25E | 1 | poly(A) RNA held back in the nucleus | poly(A) RNA held back in the nucleus
ssx | 1 | poly(A) RNA held back in the nucleus | –
CG4004 | 1 | poly(A) RNA held back in the nucleus | –
L (retired record) | 1 | poly(A) RNA held back in the nucleus | –
SmD3 | 1 | poly(A) RNA held back in the nucleus | poly(A) RNA held back in the nucleus
Alg14 | 1 | poly(A) RNA held back in the nucleus | –
CG31068 | 1 | poly(A) RNA held back in the nucleus | –
Sse | 1 | poly(A) RNA held back in the nucleus | –
CycE | 1 | poly(A) RNA held back in the nucleus | poly(A) RNA held back in the nucleus
CG34231 | 1 | poly(A) RNA held back in the nucleus | –
Tango2 | 1 | poly(A) RNA held back in the nucleus | –
Vps52 | 1 | poly(A) RNA held back in the nucleus | –
Tk | 1 | poly(A) RNA held back in the nucleus | –
CG5989 | 1 | poly(A) RNA held back in the nucleus | –
CG33543 | 1 | poly(A) RNA held back in the nucleus | –
RpL18 | 1 | poly(A) RNA held back in the nucleus | –
RpL18 | 2 | poly(A) RNA held back in the nucleus | poly(A) RNA held back in the nucleus
eIF2gamma | 1 | poly(A) RNA held back in the nucleus | –
Sdr | 1 | poly(A) RNA held back in the nucleus | –
CG3902 | 1 | poly(A) RNA held back in the nucleus | –

Next part (2 carried over from the part before).
predicted target | reagent no. | phenotype, replicate 1 | phenotype, replicate 2
Sdr | 1 | poly(A) RNA held back in the nucleus | –
CG3902 | 1 | poly(A) RNA held back in the nucleus | –
bves | 1 | poly(A) RNA held back in the nucleus | –
noi | 1 | poly(A) RNA held back in the nucleus | poly(A) RNA held back in the nucleus
Tbcc | 1 | poly(A) RNA held back in the nucleus | –
stwl | 1 | poly(A) RNA held back in the nucleus | –
CG31523 | 1 | poly(A) RNA held back in the nucleus | –
Sf3b1 | 1 | poly(A) RNA held in nucleus; cells rounded | poly(A) RNA held in nucleus; cells rounded
5-HT1B | 1 | poly(A) RNA held back in the nucleus | poly(A) RNA held back in the nucleus
dpr11 | 1 | poly(A) RNA held back in the nucleus | –
Klc | 1 | poly(A) RNA held back in the nucleus | –
Usp30 | 1 | poly(A) RNA held back in the nucleus | –
PGRP-LD + Pmi | 1 | poly(A) RNA held back in the nucleus | –
Naa30A | 1 | poly(A) RNA held back in the nucleus | –
Pdp1 | 1 | poly(A) RNA held back in the nucleus | poly(A) RNA held back in the nucleus
Picot | 1 | poly(A) RNA held back in the nucleus | –
RpS11 | 1 | poly(A) RNA held back in the nucleus | –
RpS15Aa + RpS15Ab | 1 | poly(A) RNA held back in the nucleus | –
Cpr11A | 1 | poly(A) RNA held back in the nucleus | –
Sry-alpha | 1 | poly(A) RNA held back in the nucleus | –
pch2 | 1 | poly(A) RNA held back in the nucleus | –
Sf3a1 | 1 | poly(A) RNA held back in the nucleus | –
B-H2 | 1 | poly(A) RNA held back in the nucleus | poly(A) RNA held back in the nucleus
CG31436 | 1 | poly(A) RNA held back in the nucleus | –
Dis3 | 1 | poly(A) RNA held back in the nucleus | –
CG9630 | 1 | poly(A) RNA held back in the nucleus | –
flfl | 1 | poly(A) RNA held back in the nucleus | –
CG42534 | 1 | poly(A) RNA held back in the nucleus | –
CG42534 | 2 | poly(A) RNA held back in the nucleus | –
U2A | 1 | poly(A) RNA held back in the nucleus | –
TM9SF3 | 1 | poly(A) RNA held back in the nucleus | –
SmE | 1 | poly(A) RNA held back in the nucleus | poly(A) RNA held back in the nucleus
RhoGAP93B | 1 | poly(A) RNA held back in the nucleus | –
Culd | 1 | poly(A) RNA held back in the nucleus | –
Abcd1 | 1 | poly(A) RNA held back in the nucleus | –
Dscam1 | 1 | poly(A) RNA held back in the nucleus | –
Pp2B-14D | 1 | poly(A) RNA held back in the nucleus | –
CG8172 | 1 | poly(A) RNA held back in the nucleus | –
Nup153 | 1 | poly(A) RNA held back in the nucleus | poly(A) RNA held back in the nucleus
Sh | 1 | poly(A) RNA held back in the nucleus | –
Brr2 | 1 | poly(A) RNA held back in the nucleus | poly(A) RNA held back in the nucleus
CG5758 | 1 | poly(A) RNA held back in the nucleus | –
mRpS9 | 1 | poly(A) RNA held back in the nucleus | –
CG5674 | 1 | poly(A) RNA held back in the nucleus | –
CG2685 | 1 | poly(A) RNA held back in the nucleus | poly(A) RNA held back in the nucleus
CG15365 | 1 | poly(A) RNA held back in the nucleus | –
mip120 | 1 | poly(A) RNA held back in the nucleus | –
knk | 1 | poly(A) RNA held back in the nucleus | –
TwdlF | 1 | poly(A) RNA held back in the nucleus | –
IP3K2 | 1 | poly(A) RNA held back in the nucleus | –
E(bx) | 1 | poly(A) RNA held back in the nucleus | –
RpLP1 | 1 | poly(A) RNA held back in the nucleus | –
Cpr47Ee | 1 | poly(A) RNA held back in the nucleus | poly(A) RNA held back in the nucleus
CG4592 | 1 | – | poly(A) RNA held back in the nucleus
swm | 1 | poly(A) RNA held back in the nucleus | poly(A) RNA held back in the nucleus
ND-39 | 1 | poly(A) RNA held back in the nucleus | –
CG8119 | 1 | poly(A) RNA held back in the nucleus | –
pum | 1 | poly(A) RNA held back in the nucleus | poly(A) RNA held back in the nucleus
CG42673 | 1 | poly(A) RNA held back in the nucleus | –
CG42673 | 2 | poly(A) RNA held back in the nucleus | –
Gcn5 | 1 | poly(A) RNA held back in the nucleus | –
RpS18 | 1 | poly(A) RNA held back in the nucleus | –
DopEcR | 1 | poly(A) RNA held back in the nucleus | –
CG11406 | 1 | poly(A) RNA held back in the nucleus | –
l(1)10Bb | 1 | poly(A) RNA held back in the nucleus | poly(A) RNA held back in the nucleus
RpL12 | 1 | poly(A) RNA held back in the nucleus | –
Hey | 1 | poly(A) RNA held back in the nucleus | cells possibly dying
CG11035 | 1 | poly(A) RNA held back in the nucleus | –
CG4849 | 1 | poly(A) RNA held back in the nucleus | –
